Experimental data: paper PMC4358367, “Structural basis of diverse membrane target recognitions by ankyrins” (eLife, 2014)
Results are given in words; binding and its absence hold for the method and conditions named. Some binding calls cover weakened binding; strength is not graded here.

Key:
[1] = biological target: T1, AnkR_repeats (24 ANK repeats of ankyrin-R, residues 42–853) (mouse) (UniProt Q02357); test: ITC; VP-ITC at 25°C; 50 mM Tris pH 7.5, 100 mM NaCl, 1 mM EDTA, 1 mM DTT; binding partner (AS, Nav1.2 ABD proteins, neurofascin ABD; 200–300 µM) in the syringe, ANK repeats (20–30 µM) in the cell; one-site binding model; both purified
T1 sequence: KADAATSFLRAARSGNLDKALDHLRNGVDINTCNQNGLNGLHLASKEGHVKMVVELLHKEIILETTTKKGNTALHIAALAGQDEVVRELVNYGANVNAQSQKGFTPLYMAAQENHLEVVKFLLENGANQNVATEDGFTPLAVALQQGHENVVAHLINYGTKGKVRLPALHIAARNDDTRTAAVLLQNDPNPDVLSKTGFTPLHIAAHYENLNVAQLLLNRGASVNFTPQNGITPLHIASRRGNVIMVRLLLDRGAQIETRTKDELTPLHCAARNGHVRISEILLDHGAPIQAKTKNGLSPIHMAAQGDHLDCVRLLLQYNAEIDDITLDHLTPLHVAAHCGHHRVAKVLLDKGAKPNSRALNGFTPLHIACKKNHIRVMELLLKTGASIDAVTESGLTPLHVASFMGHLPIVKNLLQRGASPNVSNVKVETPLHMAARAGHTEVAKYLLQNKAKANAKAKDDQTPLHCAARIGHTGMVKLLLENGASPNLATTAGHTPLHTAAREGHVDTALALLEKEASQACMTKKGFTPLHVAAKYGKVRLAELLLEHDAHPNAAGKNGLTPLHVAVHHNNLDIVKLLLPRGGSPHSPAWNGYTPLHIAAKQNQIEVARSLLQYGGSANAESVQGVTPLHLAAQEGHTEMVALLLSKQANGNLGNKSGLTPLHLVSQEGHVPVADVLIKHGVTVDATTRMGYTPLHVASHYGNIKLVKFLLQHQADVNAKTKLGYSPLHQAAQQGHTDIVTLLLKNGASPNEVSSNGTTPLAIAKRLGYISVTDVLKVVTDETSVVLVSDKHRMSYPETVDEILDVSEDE

[2] = biological target: T2, AnkG_repeats (24 ANK repeats of rat 190 kDa ankyrin-G, residues 38–855) (rat) (UniProt O70511); test: as above
T2 sequence: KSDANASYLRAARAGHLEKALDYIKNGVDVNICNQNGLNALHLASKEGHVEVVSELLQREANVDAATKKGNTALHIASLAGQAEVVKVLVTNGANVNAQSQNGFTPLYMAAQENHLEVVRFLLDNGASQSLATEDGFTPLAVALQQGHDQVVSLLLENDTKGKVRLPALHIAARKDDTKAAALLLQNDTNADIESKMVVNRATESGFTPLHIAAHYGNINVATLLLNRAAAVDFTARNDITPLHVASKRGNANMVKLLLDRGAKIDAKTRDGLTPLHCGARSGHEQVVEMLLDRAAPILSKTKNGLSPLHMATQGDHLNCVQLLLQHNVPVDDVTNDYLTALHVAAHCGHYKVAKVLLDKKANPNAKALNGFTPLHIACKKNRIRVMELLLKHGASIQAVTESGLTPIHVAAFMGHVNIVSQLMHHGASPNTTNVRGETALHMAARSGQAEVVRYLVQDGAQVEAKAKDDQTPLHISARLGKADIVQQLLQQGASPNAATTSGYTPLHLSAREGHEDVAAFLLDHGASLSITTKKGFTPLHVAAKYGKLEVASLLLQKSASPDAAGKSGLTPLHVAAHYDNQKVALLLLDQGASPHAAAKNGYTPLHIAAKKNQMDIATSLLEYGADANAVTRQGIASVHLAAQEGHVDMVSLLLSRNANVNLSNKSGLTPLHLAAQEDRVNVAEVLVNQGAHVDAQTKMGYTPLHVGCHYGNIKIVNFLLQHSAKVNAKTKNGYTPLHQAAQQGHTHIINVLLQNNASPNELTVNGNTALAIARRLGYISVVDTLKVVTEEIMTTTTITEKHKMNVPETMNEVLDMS

[3] = biological target: T3, AnkB_repeats (24 ANK repeats of human 220 kDa ankyrin-B, residues 28–873) (human) (UniProt Q01484); test: 1H-13C HSQC NMR of the 13CH3-Met labeled fusion protein before and after thrombin cleavage; 0.35 mM AnkR_AS-AnkB_repeats fusion, with or without 50 µg/ml thrombin; 50 mM Tris pH 7.0, 100 mM NaCl, 1 mM DTT, 1 mM EDTA; 35°C; both purified
T3 sequence: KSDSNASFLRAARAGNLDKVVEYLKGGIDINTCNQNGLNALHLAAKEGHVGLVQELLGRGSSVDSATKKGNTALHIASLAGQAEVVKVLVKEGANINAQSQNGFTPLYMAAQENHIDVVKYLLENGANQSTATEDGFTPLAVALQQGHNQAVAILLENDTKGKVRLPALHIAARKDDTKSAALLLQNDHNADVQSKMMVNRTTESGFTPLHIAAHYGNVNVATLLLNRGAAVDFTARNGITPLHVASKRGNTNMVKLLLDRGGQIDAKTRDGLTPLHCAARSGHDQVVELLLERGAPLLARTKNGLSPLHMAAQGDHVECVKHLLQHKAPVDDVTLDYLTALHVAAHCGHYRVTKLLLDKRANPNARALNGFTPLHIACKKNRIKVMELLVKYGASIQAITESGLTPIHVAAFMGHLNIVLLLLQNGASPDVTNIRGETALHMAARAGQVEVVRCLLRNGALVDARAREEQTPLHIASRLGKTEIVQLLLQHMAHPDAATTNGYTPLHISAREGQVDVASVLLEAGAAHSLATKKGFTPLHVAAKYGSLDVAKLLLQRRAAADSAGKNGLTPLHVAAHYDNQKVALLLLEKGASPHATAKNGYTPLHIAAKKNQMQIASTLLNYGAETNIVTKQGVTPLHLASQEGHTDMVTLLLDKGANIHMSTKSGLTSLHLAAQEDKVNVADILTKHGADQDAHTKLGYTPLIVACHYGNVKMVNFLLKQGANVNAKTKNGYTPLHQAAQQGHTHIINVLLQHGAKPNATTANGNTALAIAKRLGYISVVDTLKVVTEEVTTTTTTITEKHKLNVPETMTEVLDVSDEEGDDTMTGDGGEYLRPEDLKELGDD

[4] = biological target: T3, AnkB_repeats (24 ANK repeats of human 220 kDa ankyrin-B, residues 28–873) (human); test: crystal structure; AnkR_AS fused at its C-terminus with AnkB_repeats on one chain (thrombin-site linker); Se-Met derivative refined at 3.5 Å; 0.5 M ammonium sulfate, 1.0 M lithium sulfate, 0.1 M sodium citrate pH 5.6, 16°C; both purified

Measured: binding

B1: AnkR_AS (48-residue auto-inhibitory segment of AnkR, residues 1577–1624) (domain or fragment, mouse, UniProt Q02357-6 1577-1624, looked up)
chain: CADQYWNEVTVIDAIPLAATEHDTMLEMSDMQVWSAGLTPSLVTAEDS
notes: Free AS in ITC; source: E. coli BL21 (DE3), purified
binds: all assays above
